Results as given in paper PMC11980370.
Results are given in words; binding and its absence hold for the method and conditions named. In cells and extracts the contact can be indirect. For part of these data: Binding calls can cover weak binding; strength is not graded here. Where a sequence is shown, tags or fusion partners need not be part of it.

Legend:
[1] = molecular target: T1, Myc-MARCH5 (membrane-associated RING-CH-type finger 5, E3 ubiquitin ligase) (UniProt Q9NX47); assay: co-IP
T1 sequence: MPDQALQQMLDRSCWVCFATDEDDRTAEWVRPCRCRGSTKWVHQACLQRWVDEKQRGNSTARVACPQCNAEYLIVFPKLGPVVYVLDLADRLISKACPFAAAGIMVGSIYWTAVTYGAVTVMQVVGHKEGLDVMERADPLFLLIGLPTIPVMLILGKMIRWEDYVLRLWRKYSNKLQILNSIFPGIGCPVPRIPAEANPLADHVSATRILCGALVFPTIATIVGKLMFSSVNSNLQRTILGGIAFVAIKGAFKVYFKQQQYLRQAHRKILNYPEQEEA

[2] = molecular target: Myc-tagged porcine MARCH5 (porcine); assay: co-IP; HEK-293T cells co-transfected for 24 h, lysed in RIPA buffer with 1 mM PMSF; lysates with anti-Myc magnetic beads overnight at 4°C (Fig. 2A, 6A; beads of Fig. 6C not told), three washes, western blot

Flag-tagged JEV precursor membrane (prM) protein (Japanese encephalitis virus)
binding [1]: no binding

Flag-tagged JEV envelope (E) protein (Japanese encephalitis virus)
binding [1]: binds

Flag-tagged JEV capsid (C) protein (Japanese encephalitis virus)
binding [1]: no binding

B1: Flag-tagged porcine IKKε (enzyme, UniProt M9MMN5 1-718)
chain: MQSTVNYLWHTDDLLGQGATASVYKARNKKSGELVAVKVFNTASYLRPREVQVREFEVLRKLNHQNIIKLFAVEETGGSRQKVLVMEYCSSGSLLSVLESPENAFGLPENEFLVVLRCVVAGMNHLRENGIVHRDIKPGNIMRLVGEEGQSIYKLTDFGAARELDDDEKFVSVYGTEEYLHPDMYEQAVLRKPQQKAFGVTVDLWSIGVTLYHAATGSLPFIPYGGPRRNKEIMYRITSEKPAGAIAGIQKRENGPLEWSYTLPVTCQLSTGLQSQLVPILANILEVEQAKCWGFDQFFAETSDILQRVIVHVFSLPQAVLHHVYVHTHNTIAIFLEAVYEQTNVAPQHQEYLFEGHLCVLEPSLSAQHIAHTTASSPLTLFSVASEIPKGLAFRDPALDIPKFVPKVDLQADYNTAKGVLGAGYQALRLARALLAGQELMLRGLHWFVEILQATCKRTLEVTRMALLFLSSSLGNERSSSVAGVQEIQELKRVAEMRSQLRTLAEVLSRCSHNITETQMTLSNLSSELMKNRDQVHEDRSIQQIQCSLDKMCLIYKQFKKSRMRPGLGYNEEQIHKLDKMNFSHLAKRLLQVFQEERVQKYQASLVTHGKRMRLVHETRNHLRLVGCSVAACNTQAQGAQESLSQILDQLAHQLLQDRTRGAQASPPLMATYPNPGLKDLVLHMQELCEEMKLLACDLQDNNRIIEGLNRVPAAPDI
binding [2]: no binding

B2: Flag-tagged porcine IRF3 (protein, UniProt Q764M6 1-419)
chain: MGTQKPRILPWLISQLNQGQLEGVAWLDEGHTRFRIPWKHGLRQDAQQEDFGIFQAWAEASGAYTPGKDKPDLPTWKRNFRSALNRKEALRLAEDHSKDPHDPHKIYEFVTSGVGDFPEPDTSLDLSGRYSTSDTHEDSLDKLLSGMDLASDAGPQSLTLALEQPPQLSLSPSVDAPASCPNLGVRENPLKQLLANDDEWEFQVTVFYRGCQVFQQTVCSPGGLRLVGSEAEDGTLAGQPVRLPDPAASLTDRGVADYVRRVLSCLGGGLALWRAGQWLWAQRLGHCHVYWAMGEELIPDSGHKPDGEVPKDREGGVFDLGPFIEDLIAFIEGSRRSPRYTLWFCMGQSWPQDEPWVKRLVMVKVVPMCLRALVDMARDGGASSLENTVDLHISNSHPLSLTSDQYKACLRDLVEDMDF
binding [2]: no binding

B3: Flag-tagged porcine RIG-I (protein, UniProt Q9GLV6 1-940)
chain: MTAEQRRNLHAFGDYVRKTLDPTFILSYMAPWFRDDEVQHIQAEKNNKGPTEAASLFLQFLLELQEEGWFRGFLDALNQAGYCGLCEAIESWDFQKIEKLEEYRSLLRRLQPEFKTTINPKDILPEIAECLISQECEEILQICSSKGLMAGAEKMVECLLRSDKENWPKTLKLALEKEESRFSELWMVDKGAEDVKMKDLEDDEMKTCDVQIFYKEEPENQNLSQNSCSSSAPHTYSPLKPRKYQLELALPAQNGKNTIICAPTGCGKTFVSLLICEHHLKKFPRGRKGKVVFFAIQLPVYEQQKSVFSKHFERLGYKVAGISGATSDTVCVEQIVENSDIIILTPQILVNCLTNGTIPSLSVFTLMIFDECHNTSKQHPYNVIMFSYLDRKLGGSSDSLPQVIGLTASVGVGDAKNKAEATEYICKLCASLDTSVIATVRDNLEELEEVVYKPQKFFRKVELRTTDRFKCIISQLMMEIESLAKSIFEELGTITLGGLFQIQNSNFGTQKYEQWIVKVQKECAVFQMPDKDKESRICKALFSYMSHLRIYNDALIINEHARMKDALDYLKDFFRNIRAAGFDEIEQDLTQRFEEKLQELESISIDPSNENPKLRDLCFILQEEYHLNPETRTILFVKTRALVDALKKWIKENPKLSFLKPSILTGRGKTNQNIGMTLPAQKCVLDTFRTDKDNKILITTSVADEGIDIAQCNLVILYEYVGNVIKMIQTRGRGRARGSKCFLLTANADLIDKEKMNMYKEEMMNGAILILQTWDEAVFKEKIHQIQIREKIIRDNQGKPEPVPDKKTKKLLCKKCKAFACYTADIRMVEKCHFTVVGDAFRERFVSKLHPKPKSFGNIEKRAKIYCARPDCSHDWGIYVRYKAFEMPFIKIESFVVEDIATGVQTVHAKWKDFNFEKLSFDAAEMAGGAQDLGLQGMGN
binding [2]: no binding
